From US8618079B2, “Imidazo[1,2-a] pyridinyl bisphosphonates” (Isis Innovation Limited, priority 2008, dated 2013)

Experiment: Hydroxyapatite (HAP) affinity, chromatographic retention on HAP column
Type: physicochemical
Settings: phosphate buffer gradient 1 mM to 1000 mM, pH 6.8, longer retention = higher mineral affinity
Procedure: Mineral affinity for hydroxyapatite was evaluated by chromatographic profiling of the novel bisphosphonate compounds. Hydroxyapatite (HAP) ceramic spheres (20 mm diameter, BioRad) were packed in a 0.66×6.5 cm glass column (Omnifit®). The HAP columns were attached to a Waters 650E Advanced Protein Purification System (FPLC) (Millipore) in a running buffer of 1 mM KPO3 at pH 6.8. Each compound was prepared in 1 mM KPO3 buffer at pH6.8 and 400 μmoles were injected into the FPLC system. The bisphosphonate compounds were eluted in a gradient of phosphate buffer, concentration increasing from 1 mM up to 1000 mM and detected by a Waters 484 UV absorbance detector (Millipore) at their optimum wavelength. […] Longer retention times (minutes) correspond with higher affinity to the HAP sphere and, correspondingly, higher mineral affinity.

HAP Affinity Retention time: 17.5 min
Compound: NCCCC(O)(P(=O)(O)O)P(=O)(O)O [Alendronate, reference compound]
